The first data set deals with HLA peptide pools from tumor and normal tissue samples. The data set is described as follows: Identification and relative LC-MS quantitation of HLA-presented tumor associated peptides (presentation profiles). Set-up: species or system human. As to conditions: FIGS. 1A to 1L; N=38 normal samples, N=91 tumor samples.
On to “DLVLKRCL (listed as Homo sapiens) [SEQ ID NO: 24]”, for which the “over-presentation in HLA-B*08 cancer tissues compared to a panel of HLA-B*08 normal samples” value was “over-presentation”.

The data set is the same for the next values; noted with them: cancer entities on which the peptide was found presented (Table 8A); value = entity abbreviations.
With “92 (TLKAMVQAW; listed as Homo sapiens) [compound 92]”, the “Peptide Presentation on cancer entities” value is recorded as “MEL”.
On to “29 (ELFLHPVL; listed as Homo sapiens) [compound 29]”, for which the “Peptide Presentation on cancer entities” value is on record as “CLL, MEL, NHL, NSCLCother”.
For “166 (VLSGGRILAL; listed as Homo sapiens) [compound 166]”, the “Peptide Presentation on cancer entities” value is recorded as “HCC”.
With “156 (ILKEQSSSSF; listed as Homo sapiens) [compound 156]”, the “Peptide Presentation on cancer entities” value was “HNSCC, NSCLCsquam”.
Still for that read-out and setting: the same measure for “192 (EEKHFTTL; listed as Homo sapiens) [compound 192]”: “NSCLCadeno”; for “14 (ELILKRCL; listed as Homo sapiens) [compound 14]”: “NSCLCadeno, NSCLCsquam”; for “46 (DLRNKIIAA; listed as Homo sapiens) [compound 46]”: “CCC, GBC, HNSCC, MEL, NHL, NSCLCadeno, NSCLCother, NSCLCsquam, OSCAR, PACA, UBC”.
On the same count and under the same terms, as for “250 (AARAPPQAL; listed as Homo sapiens) [compound 250]”, the entry is “BRCA, GBC”.
The same measure, in the same setting: the same measure for “75 (YARLKNVLL; listed as Homo sapiens) [compound 75]”: “NSCLCadeno”; for “169 (YELNNLHAL; listed as Homo sapiens) [compound 169]”: “MEL”.
For “61 (SIKKELVVL; listed as Homo sapiens) [compound 61]”, the “Peptide Presentation on cancer entities” value was “GC, HNSCC, MEL, NSCLCadeno, NSCLCother, NSCLCsquam, PACA, UEC”.
On the same count and under the same terms, as for “141 (AQLKLVAL; listed as Homo sapiens) [compound 141]”, the entry is “NSCLCadeno”; as for “18 (LSLVRKAL; listed as Homo sapiens) [compound 18]”, “HNSCC”.
For “56 (ILCGSRKMPL; listed as Homo sapiens) [compound 56]”, the “Peptide Presentation on cancer entities” value is on record as “NHL”.
Still for that read-out and setting: as for “37 (EAFSRASL; listed as Homo sapiens) [compound 37]”, the entry is “PRCA”.
Regarding “151 (DRHLTNRVL; listed as Homo sapiens) [compound 151]”, the “Peptide Presentation on cancer entities” value was “MEL”.
Consider “121 (YSQLSISL; listed as Homo sapiens) [compound 121]”, for which the “Peptide Presentation on cancer entities” value is “MEL”.
Consider “53 (DLRKLKRQL; listed as Homo sapiens) [compound 53]”, for which the “Peptide Presentation on cancer entities” value was “CLL, MEL, NSCLCadeno”.
Regarding “234 (VFRVGISF; listed as Homo sapiens) [compound 234]”, the “Peptide Presentation on cancer entities” value is listed as “GBC”.
Still for that read-out and setting: the same measure for “86 (RPIHHPLVL; listed as Homo sapiens) [compound 86]”: “BRCA, HCC”; for “78 (DGHMKVFSL; listed as Homo sapiens) [compound 78]”: “HNSCC, NSCLCadeno, NSCLCsquam, PRCA”.
For “33 (WIGLRNLDL; listed as Homo sapiens) [compound 33]”, the “Peptide Presentation on cancer entities” value was “CLL”.
Still for that read-out and setting: the same measure for “62 (FMLAKEASL; listed as Homo sapiens) [compound 62]”: “NHL”.
Still for that read-out and setting: the same measure for “130 (LPAPYQHQL; listed as Homo sapiens) [compound 130]”: “NSCLCother”; for “31 (SPRVKWTF; listed as Homo sapiens) [compound 31]”: “GBM”; for “114 (PVKPKFYL; listed as Homo sapiens) [compound 114]”: “MEL”.
For “195 (EGNQKSVI; listed as Homo sapiens) [compound 195]”, the “Peptide Presentation on cancer entities” value was “NHL, NSCLCadeno, NSCLCsquam, PACA, UEC”.

Values taken from patent US11433099B2, “Immunotherapy with B*08 restricted peptides and combination of peptides against cancers and related methods” (Immatics Biotechnologies GmbH, priority 2018, dated 2022).
